Some entries share one result that the patent states for a list of compounds.
Columns and labels:
[1] = In vitro photobleaching measurements; assay type: physicochemical; details: 5 μM in 10 mM HEPES, pH 7.3
[2] = Chemical stability (iminium hydrolysis) by LC-MS; assay type: physicochemical; details: 100 μM, PBS pH 7.4, 48 h, absence of light
Experimental: Measurement of chemical stability and photostability by tandem high-pressure liquid chromatography-mass spectrometry (LC-MS; FIG. 3A-D, FIG. 4A-4D, FIG. 6, FIG. 10). To examine the chemical stability and photostability of the DAB dyes, samples were assessed by tandem high-pressure liquid chromatography-mass spectrometry (LC-MS) using an Agilent 1200 LC-MS system equipped with an autosampler, diode array detector, and mass spectrometry detector (ESI; positive ion mode) using a 4.6×150 mm Gemini NX-C18 column with a 5-95% or 5-50% gradient of CH3CN in H2O containing constant 0.1% (v/v) TFA. Chromatograms were monitored using absorbance at 254 nm or 400 nm. To investigate chemical hydrolysis, solutions of 8, 11, and 13-15 (100 μM) were prepared in PBS, pH 7.4. An aliquot of this freshly prepared solution was immediately analyzed by LC-MS (t=0). The solution was then incubated at ambient temperature protected from light for 48 h and analyzed again by LC-MS (t=48 h). Standard samples of coumarins 6, 10, and 12 (100 μM, PBS) were analyzed in the same manner. To compare the stability of compounds 15 and 20 under different conditions, solutions of each dye (25 μM) in citrate buffer, pH 5, PBS, pH 7.4, or Tris buffer, pH 9 were prepared in an autosampler vial and the sample was analyzed using the LC-MS instrumentation every 30 min. […]

| SMILES | photobleaching time constant (tb) relative to parent coumarin [1] | stability of iminium linkage (hydrolysis) [2] |
| --- | --- | --- |
| CCN(CC)c1ccc2c(C)cc(N(CC)CC)[o+]c2c1.O=C([O-])C(F)(F)F [Compound 8, 2,7-Bis(diethylamino)-4-methylbenzopyrylium trifluoroacetate] | 1.5-2 fold | excellent stability with minimal iminium hydrolysis |
| Cc1cc(N2CCC2)[o+]c2cc(N3CCC3)ccc12.O=C([O-])C(F)(F)F [Compound 11, 2,7-Di(azetidin-1-yl) 4-methylbenzopyrylium trifluoroacetate] | 1.5-2 fold | excellent stability with minimal iminium hydrolysis |

Reference: patent publication US12528944B2, “Live-cell fluorescent mitochondrial stains” (HOWARD HUGHES MEDICAL INSTITUTE, priority 2022, dated 2026)
